# Experimental data from PubChem BioAssay (EPA / NIEHS).
# Chains of the proteins cited; added tags and fusions are not shown. Lines headed by an entry give the natural chain unless they say otherwise; changes in a name come on top.
# UniProt Q9PVE4: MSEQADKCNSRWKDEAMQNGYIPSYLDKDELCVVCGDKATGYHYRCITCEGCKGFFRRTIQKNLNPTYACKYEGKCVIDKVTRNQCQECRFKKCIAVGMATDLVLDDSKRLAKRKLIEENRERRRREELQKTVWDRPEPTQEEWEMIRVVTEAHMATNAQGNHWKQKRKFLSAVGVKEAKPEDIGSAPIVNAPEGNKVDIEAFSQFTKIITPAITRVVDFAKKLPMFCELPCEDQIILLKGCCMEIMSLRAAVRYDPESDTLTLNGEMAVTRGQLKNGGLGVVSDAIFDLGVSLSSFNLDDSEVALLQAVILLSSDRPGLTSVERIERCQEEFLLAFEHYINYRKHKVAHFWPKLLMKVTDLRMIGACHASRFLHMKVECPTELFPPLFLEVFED
# For part of these data: The hits were mostly taken out for another list; the other results follow. Inconclusive results are not listed. The list shows a part of the results, in another mix than the full data. Activity calls are given as the source filed them. The calls were made as follows, unless noted: active = hit-call score of the fitted dose curve at least 0.9, where 1 is the maximum; inactive = score below 0.9.
# How the values were obtained:
# [1] = read-out: Bcl-2 (BAX) gene, BAX (gene 581); assay: LTEA_HepaRG_BAX: Life Technologies and Expression Analysis (LTEA) Assay for Bcl-2 (BAX) gene using HepaRG (AID 2283470); settings: actives raise or lower the signal; mRNA level, 48 h
# Summary of the method: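 Concentration-response endpoint fitted in both directions relative to 0.5% DMSO vehicle. Human HepaRG cultures receive test chemicals for 48 h at up to 100 uM; BAX mRNA is quantified by qRT-PCR against housekeeping genes.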
# [2] = read-out: solute carrier (SLCO1B1), SLCO1B1 (gene 10599); assay: LTEA_HepaRG_SLCO1B1: Life Technologies and Expression Analysis (LTEA) Assay for solute carrier (SLCO1B1) using HepaRG (AID 2283530); settings: actives raise or lower the signal; mRNA level, 48 h
# Summary of the method: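 Human HepaRG cultures treated for 48 h with an eight-concentration half-log series topping at 100 uM; SLCO1B1 measured by qRT-PCR and fitted bidirectionally relative to DMSO.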
# [3] = read-out: catalase (CAT), CAT (gene 847); assay: LTEA_HepaRG_CAT: Life Technologies and Expression Analysis (LTEA) Assay for catalase (CAT) using HepaRG (AID 2283452); settings: actives raise or lower the signal; mRNA level, 48 h
# Summary of the method: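 HepaRG cells in serum-free induction medium, 0.5% DMSO vehicle, exposed 48 h in duplicate over 8 half-log concentrations from 100 uM. CAT mRNA measured by qRT-PCR, normalized to ACTB, GAPDH, POLR2A; bidirectional fit versus DMSO.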
# [4] = read-out: Fatty Acid-Binding Protein 1 (FABP1), FABP1 (gene 2168); assay: LTEA_HepaRG_FABP1: Life Technologies and Expression Analysis (LTEA) Assay for Fatty Acid-Binding Protein 1 (FABP1) using HepaRG (AID 2283494); settings: actives raise or lower the signal; mRNA level, 48 h
# Summary of the method: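 Differentiated human HepaRG cells exposed 48 h in serum-free induction medium to eight half-log concentrations up to 100 uM (0.5% DMSO), duplicate. FABP1 mRNA by qRT-PCR, normalised to ACTB, GAPDH, POLR2A; bidirectional fitting against DMSO.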
# [5] = read-out: Keratin 19 (KRT19), KRT19 (gene 3880); assay: LTEA_HepaRG_KRT19: Life Technologies and Expression Analysis (LTEA) Assay for Keratin 19 (KRT19) using HepaRG (AID 2283512); settings: actives raise or lower the signal; mRNA level, 48 h
# Summary of the method: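 Readout is qRT-PCR of KRT19 mRNA, normalized to ACTB, GAPDH and POLR2A, from HepaRG cells treated 48 h with eight-point half-log dilutions topping at 100 uM. Activity in either direction is scored relative to 0.5% DMSO vehicle.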
# [6] = read-out: Bcl-2 (BAD) gene, BAD (gene 572); assay: LTEA_HepaRG_BAD: Life Technologies and Expression Analysis (LTEA) Assay for Bcl-2 (BAD) gene using HepaRG (AID 2283469); settings: actives raise or lower the signal; mRNA level, 48 h
# Summary of the method: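 Differentiated HepaRG cells were exposed in duplicate in 0.5% DMSO for 48 h to eight-point half-log concentrations up to 100 uM. BAD mRNA was measured by Fluidigm TaqMan qRT-PCR, normalized to ACTB, GAPDH and POLR2A, and fitted bidirectionally against DMSO.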
# [7] = CEETOX_H295R_TESTO: CeeTox H295R High-throughput Steroidogenesis Assay for Testosterone (TESTO) (AID 2283457); settings: actives raise or lower the signal
# Summary of the method: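 Steroidogenesis in H295R cells following OECD 456 with minor changes; 48 h exposure. Medium testosterone by HPLC-MS/MS, DMSO as baseline, with MTT viability run in parallel.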
# [8] = target: zebrafish Thyroid Hormone Receptor beta (TRb), thrb (gene 30607) (UniProt Q9PVE4); assay: ATG_zfTRb_XSP1: Attagene TRANS-FACTORIAL Multi-Species (XSP1) HepG2 Assay for zebrafish Thyroid Hormone Receptor beta (TRb) (AID 2283809; active = hit-call score of the fitted dose curve at least 0.9, where 1 is the maximum)
# Summary of the method: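 HepG2 cells transiently transfected with multiplexed GAL4-UAS reporter units expressing chimeric zebrafish TRb–Gal4. Dosed 24 h with 3 nM 6-alpha-fluorotestosterone present; reporter mRNA measured by RT-PCR, HpaI digestion and capillary electrophoresis; gain of signal versus DMSO.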
# [9] = CCTE_Shafer_MEA_acute_per_burst_spike_number_mean: CCTE's Neural Acute Assay for Average Number of Spikes Per Burst, Shafer Lab (AID 2284015);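 also: hits are decreases in mean spikes per burst versus baseline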
# Summary of the method: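 We recorded spontaneous network firing of rat cortical neurons for 40 min before and 40 min during exposure to compound at 0.03-40 uM, at 37 C. Spikes were detected adaptively at 8x rms noise, and the change in average spikes per burst was fitted against DMSO.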
# [10] = read-out: Cyclin D1 (CCND1), CCND1 (gene 595); assay: LTEA_HepaRG_CCND1: Life Technologies and Expression Analysis (LTEA) Assay for Cyclin D1 (CCND1) using HepaRG (AID 2283451); settings: actives raise or lower the signal; mRNA level, 48 h
# Summary of the method: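 Expression change is measured by qRT-PCR in HepaRG cells after 48 h treatment across eight concentrations topping at 100 uM, with duplicate wells and DMSO (0.5%) serving as baseline for bidirectional fitting.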
# [11] = read-out: Pro-epidermal growth factor (Homo sapiens) (UniProt P01133); assay: LTEA_HepaRG_EGF: Life Technologies and Expression Analysis (LTEA) Assay for Epidermal growth factor (EGF) using HepaRG (AID 2283489); settings: actives raise or lower the signal; mRNA level, 48 h
# Summary of the method: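 Concentration-response mRNA assay: HepaRG cells dosed 48 h (max 100 uM, 0.5% DMSO), EGF measured by qRT-PCR and normalized to ACTB/GAPDH/POLR2A.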
# [12] = read-out: succinate dehydrogenase complex iron sulfur subunit B (SDHB), SDHB (gene 6390); assay: LTEA_HepaRG_SDHB: Life Technologies and Expression Analysis (LTEA) Assay for succinate dehydrogenase complex iron sulfur subunit B (SDHB) using HepaRG (AID 2283528); settings: actives raise or lower the signal; mRNA level, 48 h
# Summary of the method: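 A human HepaRG culture in serum-free induction medium received test chemicals for 48 h over an eight-point range capped at 100 uM. SDHB expression change was quantified by qRT-PCR.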
# [13] = read-out: ABC Transporter (ABCB11), ABCB11 (gene 8647); assay: LTEA_HepaRG_ABCB11: Life Technologies and Expression Analysis (LTEA) Assay for ABC Transporter (ABCB11) using HepaRG (AID 2283463); settings: actives raise or lower the signal; mRNA level, 48 h
# Summary of the method: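 Differentiated human HepaRG cells in serum-free induction medium, dosed in duplicate for 48 h. Eight-point half-log series from 100 uM in 0.5% DMSO; ABCB11 mRNA by qRT-PCR, normalized to ACTB, GAPDH, POLR2A, fitted bidirectionally versus DMSO.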
# [14] = read-out: Cytochrome P450 (CYP24A1), CYP24A1 (gene 1591); assay: LTEA_HepaRG_CYP24A1: Life Technologies and Expression Analysis (LTEA) Assay for Cytochrome P450 (CYP24A1) using HepaRG (AID 2283478); settings: actives raise or lower the signal; mRNA level, 48 h
# Summary of the method: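 Gene expression of CYP24A1 by TaqMan qRT-PCR in HepaRG after 48 h treatment, highest concentration 100 uM; activity fitted in both directions relative to DMSO vehicle.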
# [15] = read-out: Thyroid Hormone Responsive (THRSP), THRSP (gene 7069); assay: LTEA_HepaRG_THRSP: Life Technologies and Expression Analysis (LTEA) Assay for Thyroid Hormone Responsive (THRSP) using HepaRG (AID 2283536); settings: actives raise or lower the signal; mRNA level, 48 h
# Summary of the method: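 Differentiated HepaRG cells treated 48 h in serum-free induction medium with 8 half-log concentrations up to 100 uM (0.5% DMSO), duplicates. THRSP mRNA by TaqMan qRT-PCR normalised to ACTB, GAPDH, POLR2A; bidirectional fit versus DMSO.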
smiles,measurement,setting,value
CCCCCCCCCCCCCCCO,outcome,[1],inactive
same,outcome,[2],inactive
CCCCc1nc2cccnc2n1Cc1ccc(-c2ccccc2-c2nnn[nH]2)cc1,outcome,[3],inactive
same,outcome,[4],inactive
same,outcome,[5],inactive
CCCCC(CC)COC(=O)CCCCC(=O)OCc1ccccc1 (stereo not given),outcome,[6],inactive
CC1(C)C(C=C(Cl)Cl)C1C(=O)OCc1cccc(Oc2ccccc2)c1 (stereo not given),outcome,[7],inactive
same,outcome,[8],inactive
same,outcome,[9],inactive
OCC(CO)(CO)CO,outcome,[10],inactive
same,outcome,[11],inactive
same,outcome,[12],inactive
CC(C)c1cccc(C(C)C)c1,outcome,[13],inactive
same,outcome,[14],inactive
same,outcome,[15],inactive
